Laboratory results: PubChem BioAssay AID1794845 (National Center for Advancing Translational Sciences (NCATS), 2023)
The campaign covered roughly 6,900 compounds. Fewer than 10 were called active. The call rests on the fitted dose curve; in most records, active means well fitted curve in the direction sought with a large enough effect; inconclusive means small, poorly fitted or top-dose-only effect, or another doubt; inactive means no such curve, though single readings can be large or run the other way. The list shows a part of the results.

Amino acid sequences for entries named in this document (tags omitted). A change or cut given only in a name is not applied to a line headed by its entry.
UniProt C7C422: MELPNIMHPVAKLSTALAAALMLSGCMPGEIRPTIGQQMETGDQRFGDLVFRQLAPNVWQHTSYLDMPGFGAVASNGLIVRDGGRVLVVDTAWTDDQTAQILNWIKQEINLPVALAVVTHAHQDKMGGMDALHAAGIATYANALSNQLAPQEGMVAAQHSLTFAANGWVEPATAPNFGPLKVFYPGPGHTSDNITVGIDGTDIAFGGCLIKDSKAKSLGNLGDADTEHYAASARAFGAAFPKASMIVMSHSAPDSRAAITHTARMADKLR

target: Metallo-beta-lactamase type 2 (Klebsiella pneumoniae) (UniProt C7C422); test: qHTS to identify inhibitors of the New Delhi Metallo-beta-lactamase (NDM): primary screen against the NCATS Gemini Collection; conditions: NDM-1 enzyme, meropenem hydrolysis, absorbance 300 nm; at 38.4 µM (top of the series) unless noted; further: % of control where 0% means no effect
How it was run: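 NDM-1 at 2 nM final in 50 mM HEPES pH 7.0, 1 uM ZnSO4, 0.01% Tween20, preincubated >30 min with compound. Meropenem 50 uM final added; absorbance at 300 nm after 30 min.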

Row | Structure (SMILES) | activity % (negative = inhibition)
1 | C=CCNc1nc(CC)nc2c1CCN(C(=O)c1cn(C)nc1C)CC2 | inactive: 15.5%
2 | COc1ccc(C(=O)N[C@@H]2CN(c3ncccn3)C[C@H]2CN(C)C)cn1 | inactive: 4.93%
3 | CC(=O)N1CCC(C2CCN(C(=O)c3nn(C)c4ccccc34)C2)CC1 (stereo not drawn) | inactive: 14.6%
4 | CC[C@@]1(O)CCN(C(=O)CCc2nc(-c3ccncc3)no2)C[C@H]1O | inactive: 10.4%
5 | Cc1noc([C@@H]2CN(C(=O)CCc3nc4ccccc4s3)C[C@H]2C(N)=O)n1 | inactive: -2.27%
6 | Cc1c(C(=O)N[C@H](c2cnn(C)c2)C2CC(O)C2)sc2nc[nH]c(=O)c12 (stereo partly drawn) | inactive: 2.15%
7 | COc1cccc(CN2CC(C(=O)NCc3cc4ccccc4[nH]3)CCC2=O)c1 (stereo not drawn) | inactive: 3.35%
8 | O=C(C1CC1)N1CCCC2(CN[S+](=O)([O-])c3cccnc3O2)C1 (stereo not drawn) | inactive: 0.47%
9 | COCC(=O)NC[C@H]1O[C@@H](CO)[C@@H](O)[C@H]1N1CCN(c2cccc(C(F)(F)F)c2)CC1 | inactive: -1.52%
10 | c1ccc(COc2ccc(CN3CCN(C4CCNC4)CC3)cc2)cc1 (stereo not drawn) | inactive: 2.98%
11 | CNC(=O)[C@@H](CC(C)C)N1CCC[C@H]1C(=O)N[C@@H](CO)CC(C)C | inactive: 3.21% [at 57.5 µM]
12 | CCO[C@H]1CN(C2CCN(CCc3ccccc3)CC2)C[C@@H]1O | inactive: 13.8%
13 | O=C([C@@H]1CNC[C@H](C(=O)N2CCC(c3ccncn3)CC2)C1)N1CCCC1 | inactive: 0.848%
14 | O=C1NCc2ccccc2CC12CCN(Cc1ccc(F)cc1)CC2 | inactive: 17.6%
15 | COc1ccccc1CCN1CCCC(CN(C)C(=O)Nc2ccccc2)C1 (stereo not drawn) | inactive: -8.54%
16 | CC(C)c1ccc(-n2cc(CN3CCN(C(=O)N(C)C)CC3)cn2)cc1 | inactive: 9.6%
17 | CCCn1cc(C(=O)N2CC(=O)N(c3cccc(C)c3)CC2C)c(C)n1 (stereo not drawn) | inactive: 2.88%
18 | Cn1nccc1C(=O)NC1CCCN(c2cc(N3CCCC3)ncn2)C1 (stereo not drawn) | inactive: 44.8%
19 | C=CCOc1ccc(-c2nnc(CCC(=O)NCCOc3ccccc3)c(=O)[nH]2)cc1 | inactive: 16.2%
20 | COCCS(=O)(=O)c1ncc(CN(C)C(C)c2ccon2)n1Cc1ccccc1 (stereo not drawn) | inactive: -4.26%
21 | O=C(c1ccc(C(F)(F)F)cc1)N1CCC2(COc3ccncc3[S+](=O)([O-])N2)C1 (stereo not drawn) | inactive: 0.0293%
22 | CCOc1ccccc1CN1C[C@@H](CO)[C@H](NC(=O)c2cccnc2)C1 | inactive: -2.77%
23 | Cc1nn(CC(=O)N2CCC3(CCCN(C)CC3)CC2)c(=O)c2ccccc12 | inactive: -0.775%

4 entries already listed, ordered by heavy-atom count, smallest number first:
Row | Structure (SMILES) | activity % (negative = inhibition)
8 | O=C(C1CC1)N1CCCC2(CN[S+](=O)([O-])c3cccnc3O2)C1 (stereo not drawn) | inactive: 0.47%
2 | COc1ccc(C(=O)N[C@@H]2CN(c3ncccn3)C[C@H]2CN(C)C)cn1 | inactive: 4.93%
13 | O=C([C@@H]1CNC[C@H](C(=O)N2CCC(c3ccncn3)CC2)C1)N1CCCC1 | inactive: 0.848%
7 | COc1cccc(CN2CC(C(=O)NCc3cc4ccccc4[nH]3)CCC2=O)c1 (stereo not drawn) | inactive: 3.35%
